Two molecules from article PMC4232310 can be followed below.

This test deals with T1, flag-tagged Mts4 (Rpn1) (S. pombe) (UniProt P87048).
T1 sequence: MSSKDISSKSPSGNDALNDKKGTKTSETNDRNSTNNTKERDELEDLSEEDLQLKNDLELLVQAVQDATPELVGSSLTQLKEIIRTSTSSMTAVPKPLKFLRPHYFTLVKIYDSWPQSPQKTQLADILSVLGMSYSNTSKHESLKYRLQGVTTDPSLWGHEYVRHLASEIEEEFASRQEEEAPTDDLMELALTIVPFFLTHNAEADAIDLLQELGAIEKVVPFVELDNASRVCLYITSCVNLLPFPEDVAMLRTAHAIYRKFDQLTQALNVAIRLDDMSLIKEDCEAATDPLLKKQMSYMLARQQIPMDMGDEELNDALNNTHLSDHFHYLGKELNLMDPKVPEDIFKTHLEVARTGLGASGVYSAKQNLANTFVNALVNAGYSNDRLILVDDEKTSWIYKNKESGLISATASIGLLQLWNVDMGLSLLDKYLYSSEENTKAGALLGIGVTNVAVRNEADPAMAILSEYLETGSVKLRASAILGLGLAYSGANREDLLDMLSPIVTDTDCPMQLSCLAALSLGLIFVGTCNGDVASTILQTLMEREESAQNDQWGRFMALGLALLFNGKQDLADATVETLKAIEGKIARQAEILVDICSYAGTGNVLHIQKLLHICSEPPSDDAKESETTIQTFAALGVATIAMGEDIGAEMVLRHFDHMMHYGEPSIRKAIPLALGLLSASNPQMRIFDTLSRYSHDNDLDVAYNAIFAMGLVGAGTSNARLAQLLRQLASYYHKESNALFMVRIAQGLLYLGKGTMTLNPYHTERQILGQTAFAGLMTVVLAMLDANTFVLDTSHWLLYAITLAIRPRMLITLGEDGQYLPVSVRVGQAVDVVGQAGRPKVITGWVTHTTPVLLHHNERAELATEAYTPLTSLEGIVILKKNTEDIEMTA
The test can be described thus: affinity purification with mass spectrometry; 26S proteasomes, flag-tagged on Mts4 (Rpn1), purified from wild-type, rpn10Δ, rpn10ΔUIM and dss1Δ cells; label-free quantitative mass spectroscopy.

No constants are given. Whether binding was seen depends on the method and setting. Binding seen in cells or lysates may run through a third protein. A yes stands for co-enrichment or nearness to the bait. Other partners may have been found. Sequences can lack the tags named with a protein.

B1: Rpn3 (protein, UniProt O42897 1-497)
chain: MIDDQRDMQVDSVNQEENVDSGETKQNTVTEVPRTVLQDVEANIAALMQATKQRDPRLVYRSLRTTSNICHRLNADVLGQLIKKYYSFDNSLKNELLELIDMPQNGDDSSTSITNGNGNTIFPEVDMYLQLLLSMTLYYNEKYEVGAEYIKKVIARLQSYDRRTLDQIAAKLYFYYILFFEKCNRSVECRNTLLSVHRTASLRHDSETQAMVLTLLLRNYIQFNLYDQADRLVSKTSFLTNASNNLAIRYQYYLGRIRAIQLDYTTAHEHLVSAIRKAPNTVYAVQFLEAVYKLHIVVQLLMGEIPERRIFRQKSLEKTLVPYLRISQAVRIGDLCAFTDALSKYEAEFRFDGLYTLICRLRHTVIKTGLRMISLSYSRISLRDVCIKLGLDSEESAEYIVAKGIRDGVIDASIDHSNAFMASNEAMDIYSTEQPQQAFHERIQFCLALHNDSIKSMRYPMDAHKSELEGVEEARRRMDKEMAEADLDDDEPDLGEF
Turning to B1, the binding entry is listed as “binds”.

B2: Rpn7 (protein, UniProt Q10335 1-397)
chain: MTEKARTVSDLTISQAIFELSSPFLENKSQKALDTLFSAIRDHDLAPLYKYLSENPKTSASIDFDSNFLNSMIKKNEEKLAEFDKAIEDAQELNGEHEILEAMKNKADYYTNICDRERGVQLCDETFERATLTGMKIDVLFSKIRLAYVYADMRVVGQLLEKLKPLIEKGGDWERKNRLKAYQGIYLMSIRNFSGAADLLLDCMSTFSSTELLPYYDVVRYAVISGAISLDRVDVKTKIVDSPEVLAVLPQNESMSSLEACINSLYLCDYSGFFRTLADVEVNHLKCDQFLVAHYRYYVREMRRRAYAQLLESYRALSIDSMAASFGVSVDYIDRDLASFIPDNKLNCVIDRVNGVVFTNRPDEKNRQYQEVVKQGDVLLNKLQKYQATVMRGAFKV
Turning to B2, the binding result is “binds”.
